Reference: publication PMC12827350
No constants are given. Whether binding was seen depends on the method and setting. In cells and extracts the contact can be indirect. Some results given as binding are weak or reduced against the parent protein; the word gives no strength. For some assays here: Tags and fused reporters may be left off the sequences shown. One block for each binder: values may come before it.

Protein sequences, listed by entry. Tags and fused reporters are not part of them.
UniProt Q9EP97: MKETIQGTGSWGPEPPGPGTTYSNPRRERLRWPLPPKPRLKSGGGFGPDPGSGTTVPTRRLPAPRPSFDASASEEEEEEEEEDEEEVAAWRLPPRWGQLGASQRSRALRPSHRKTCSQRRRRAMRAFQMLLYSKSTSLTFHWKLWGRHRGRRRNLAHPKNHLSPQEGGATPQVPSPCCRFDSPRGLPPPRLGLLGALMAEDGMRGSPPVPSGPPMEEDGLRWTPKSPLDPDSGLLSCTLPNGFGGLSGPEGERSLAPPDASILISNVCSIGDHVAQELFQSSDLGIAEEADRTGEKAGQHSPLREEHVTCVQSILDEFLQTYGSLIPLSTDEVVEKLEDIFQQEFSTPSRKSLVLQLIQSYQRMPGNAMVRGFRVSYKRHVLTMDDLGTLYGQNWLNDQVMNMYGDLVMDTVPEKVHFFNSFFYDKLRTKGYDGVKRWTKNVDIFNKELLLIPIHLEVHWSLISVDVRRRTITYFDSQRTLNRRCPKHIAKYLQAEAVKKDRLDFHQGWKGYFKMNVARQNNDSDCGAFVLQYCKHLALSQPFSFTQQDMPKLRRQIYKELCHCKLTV

What was measured:
[1] = target: SENP3, endogenous (mouse (endogenous in TCMK1)) (UniProt Q9EP97); experiment: co-IP; endogenous proteins in TCMK1 cell lysates, cells untreated or after hypoxia/reoxygenation (H/R: 3 h hypoxia, 24 h reoxygenation); lysates with primary antibody or IgG and protein A/G beads overnight at 4 °C, immunoblot
SENP3-WT-HIS = SENP3-WT-HIS (UniProt Q9EP97); experiment: co-IP; HEK-293T cells transfected for 48 h with vectors for FLAG-ASS1 (WT or 2KR), HA-UBC9, MYC-SUMO2/3 and His-SENP3; lysates with primary antibody or IgG and protein A/G beads overnight at 4 °C, immunoblot

binding [1]: binds
B1: Arginosuccinate synthase 1 (ASS1), endogenous (protein, UniProt P16460 1-412)
chain: MSSKGSVVLAYSGGLDTSCILVWLKEQGYDVIAYLANIGQKEDFEEARKKALKLGAKKVFIEDVSKEFVEEFIWPAVQSSALYEDRYLLGTSLARPCIARRQVEIAQREGAKYVSHGATGKGNDQVRFELTCYSLAPQIKVIAPWRMPEFYNRFKGRNDLMEYAKQHGIPIPVTPKSPWSMDENLMHISYEAGILENPKNQAPPGLYTKTQDPAKAPNSPDVLEIEFKKGVPVKVTNIKDGTTRTTSLELFMYLNEVAGKHGVGRIDIVENRFIGMKSRGIYETPAGTILYHAHLDIEAFTMDREVRKIKQGLGLKFAELVYTGFWHSPECEFVRHCIQKSQERVEGKVQVSVFKGQVYILGRESPLSLYNEELVSMNVQGDYEPIDATGFININSLRLKEYHRLQSKVTAK

binding (SENP3-WT-HIS): binds
B2: ASS1-WT-FLAG (protein, UniProt P16460 1-412)
chain: B1 chain
